# According to the supplement of paper PMC12889115:
# Some of the results follow. These are raw signals, not scaled to a control.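 Primary screen: polymyxin B was added at a level permeabilizing Salmonella outer membranes while sparing inner membranes. DMSO wells, both with and without polymyxin B, established maximum growth. Plate-to-plate variation meant each plate was ranked on its own, and the lowest-OD600 compounds were selected as hits.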
# System: Salmonella enterica serovar Typhimurium SL1344
# Experiment: bacterial growth OD600 after 18 h with compound and polymyxin B; higher = more bacterial growth (less inhibition)
# Settings: 50 µM, Mueller-Hinton broth
SMILES,bacterial growth OD600 (polymyxin B 0.75 µg/mL),bacterial growth OD600 (polymyxin B 1 µg/mL)
COc1cc(CN2CCCC(c3ccnc(SCCN4CCCC4)n3)C2)ccc1F (stereo not given),0.746,–
COc1cccc(C2CCCN2C(=O)c2cn(Cc3ccc(F)cc3)nn2)c1 (stereo not given),–,0.855
COc1ccc(CN2CCOc3ccc(C(O)Cc4ccccc4)cc3C2)cc1OC (stereo not given),0.725,–
O=C(CC1CCCCC1)Nc1nc2c(s1)C(=O)CC(C(=O)N1CCCCC1c1cccnc1)C2 (stereo not given),0.855,–
CCNCC1(O)CCCN(Cc2ccc(F)c(F)c2)C1=O (stereo not given),–,1.02
O[C@@H]1CN(Cc2sc3ccccc3c2Cl)CC[C@H]1N1CCN(c2ccccn2)CC1,–,1.04
O=C(c1ccccc1)C1CCN(C(=O)C2CCC(=O)N(C3CC3)C2)CC1 (stereo not given),–,0.866
O=C(c1cc(C(F)(F)F)ccc1Cl)N1CC[C@@H](N2CCC(O)CC2)[C@H](O)C1,–,0.942
COc1ccc(CC2(CO)CCN(Cc3cc(C)c(C)cc3C)CC2)cc1,–,0.837
Cc1nonc1CN(C)C(=O)c1cc(NC(=O)CC2CCCC2)cc2nc(C3CCCO3)n(C)c12 (stereo not given),0.862,–
COc1ccccc1CCN1CCCC(CN(C)C(=O)CCc2ccccn2)C1 (stereo not given),–,0.97
C[C@@H]1CN(C(=O)c2nc3sccn3c2CN(C)Cc2ccc3ccccc3n2)C[C@H](C)O1,–,0.89
CN(C)S(=O)(=O)NC1CC(=O)N(CCc2ccccc2)C1 (stereo not given),–,0.954
CN(CC1CCCN(CCc2ccccc2F)C1)C(=O)C1CCCCC1 (stereo not given),–,0.882
COc1ccccc1Oc1ncccc1CNC(=O)C(C)n1cncn1 (stereo not given),–,1.01
CN(CCc1cnn(C)c1)Cc1nc(Cc2cccc(C(F)(F)F)c2)no1,–,0.85
COCCC(=O)Nc1cc(C(=O)N2CCOc3ccccc3C2)cc2nc(-c3ccccc3)n(C)c12,0.87,–
CCNCc1ccc(OC)c(OCC(O)CN(C)C(C)C)c1 (stereo not given),0.844,–
COc1cc(CC2(CCC(=O)N3CCN(Cc4ccc(C)cc4)C(=O)C3)CCC(=O)N2)ccc1F (stereo not given),0.811,–
CCOc1ccc([C@@H]2C[C@H]3CN(Cc4cccc(Cl)c4)C(=O)[C@]34CCCN24)cc1,0.669,–

# Full records, looked up by structure.
# `C[C@@H]1CN(C(=O)c2nc3sccn3c2CN(C)Cc2ccc3ccccc3n2)C[C@H](C)O1` reads bacterial growth OD600 (polymyxin B 1 µg/mL): 0.89
# `COCCC(=O)Nc1cc(C(=O)N2CCOc3ccccc3C2)cc2nc(-c3ccccc3)n(C)c12` reads bacterial growth OD600 (polymyxin B 0.75 µg/mL): 0.87
